Results published in publication PMC10201418.

Amino acid sequences for entries named in this document (tags omitted).
UniProt P67870: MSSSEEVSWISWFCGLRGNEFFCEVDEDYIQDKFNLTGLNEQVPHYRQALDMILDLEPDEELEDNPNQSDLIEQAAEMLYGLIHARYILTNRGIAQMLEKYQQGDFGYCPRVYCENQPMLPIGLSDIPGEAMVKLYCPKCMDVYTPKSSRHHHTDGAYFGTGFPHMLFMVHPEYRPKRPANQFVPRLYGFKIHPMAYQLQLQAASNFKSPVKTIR
UniProt Q9NR30: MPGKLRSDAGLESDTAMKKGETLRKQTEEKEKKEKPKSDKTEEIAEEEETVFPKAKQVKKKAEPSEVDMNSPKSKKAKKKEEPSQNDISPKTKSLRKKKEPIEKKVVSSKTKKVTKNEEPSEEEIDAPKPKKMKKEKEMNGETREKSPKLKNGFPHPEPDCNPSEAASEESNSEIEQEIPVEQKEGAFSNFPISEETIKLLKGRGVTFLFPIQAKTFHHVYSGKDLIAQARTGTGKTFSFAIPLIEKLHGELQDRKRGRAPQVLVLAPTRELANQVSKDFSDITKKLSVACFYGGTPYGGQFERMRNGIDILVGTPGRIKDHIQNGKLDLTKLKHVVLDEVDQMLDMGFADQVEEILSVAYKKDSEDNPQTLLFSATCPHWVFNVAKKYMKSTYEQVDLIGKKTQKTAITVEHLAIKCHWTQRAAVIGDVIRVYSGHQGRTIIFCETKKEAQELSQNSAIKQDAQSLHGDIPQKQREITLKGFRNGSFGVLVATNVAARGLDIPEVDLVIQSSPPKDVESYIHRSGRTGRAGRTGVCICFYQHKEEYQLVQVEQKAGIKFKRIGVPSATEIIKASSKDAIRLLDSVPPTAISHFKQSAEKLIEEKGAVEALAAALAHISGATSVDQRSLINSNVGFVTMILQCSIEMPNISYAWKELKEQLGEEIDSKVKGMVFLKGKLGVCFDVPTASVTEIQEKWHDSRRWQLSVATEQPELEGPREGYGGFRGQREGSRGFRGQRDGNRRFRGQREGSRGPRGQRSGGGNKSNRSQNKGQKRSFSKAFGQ
UniProt P10644: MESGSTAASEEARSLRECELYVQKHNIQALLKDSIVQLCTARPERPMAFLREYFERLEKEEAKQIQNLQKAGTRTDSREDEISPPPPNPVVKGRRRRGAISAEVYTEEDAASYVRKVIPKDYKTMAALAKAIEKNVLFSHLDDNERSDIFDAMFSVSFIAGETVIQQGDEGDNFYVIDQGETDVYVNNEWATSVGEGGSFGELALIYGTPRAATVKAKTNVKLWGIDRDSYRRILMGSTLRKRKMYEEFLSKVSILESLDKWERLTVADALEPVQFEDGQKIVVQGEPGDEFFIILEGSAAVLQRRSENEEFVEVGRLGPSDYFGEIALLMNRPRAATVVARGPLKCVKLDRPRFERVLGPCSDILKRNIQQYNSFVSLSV
UniProt Q9Y2H1: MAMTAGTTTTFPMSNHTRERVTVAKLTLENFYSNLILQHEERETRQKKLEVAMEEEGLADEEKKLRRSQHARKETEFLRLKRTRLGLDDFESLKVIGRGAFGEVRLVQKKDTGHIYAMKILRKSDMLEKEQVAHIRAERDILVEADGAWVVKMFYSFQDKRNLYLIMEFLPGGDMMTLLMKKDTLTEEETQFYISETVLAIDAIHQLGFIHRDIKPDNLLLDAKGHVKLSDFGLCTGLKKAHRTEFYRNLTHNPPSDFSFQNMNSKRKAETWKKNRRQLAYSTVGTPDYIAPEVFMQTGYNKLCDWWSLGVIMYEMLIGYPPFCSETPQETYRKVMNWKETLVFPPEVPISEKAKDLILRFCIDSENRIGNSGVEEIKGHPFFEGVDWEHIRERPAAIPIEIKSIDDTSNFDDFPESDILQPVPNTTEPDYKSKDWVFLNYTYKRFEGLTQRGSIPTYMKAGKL
UniProt P13010: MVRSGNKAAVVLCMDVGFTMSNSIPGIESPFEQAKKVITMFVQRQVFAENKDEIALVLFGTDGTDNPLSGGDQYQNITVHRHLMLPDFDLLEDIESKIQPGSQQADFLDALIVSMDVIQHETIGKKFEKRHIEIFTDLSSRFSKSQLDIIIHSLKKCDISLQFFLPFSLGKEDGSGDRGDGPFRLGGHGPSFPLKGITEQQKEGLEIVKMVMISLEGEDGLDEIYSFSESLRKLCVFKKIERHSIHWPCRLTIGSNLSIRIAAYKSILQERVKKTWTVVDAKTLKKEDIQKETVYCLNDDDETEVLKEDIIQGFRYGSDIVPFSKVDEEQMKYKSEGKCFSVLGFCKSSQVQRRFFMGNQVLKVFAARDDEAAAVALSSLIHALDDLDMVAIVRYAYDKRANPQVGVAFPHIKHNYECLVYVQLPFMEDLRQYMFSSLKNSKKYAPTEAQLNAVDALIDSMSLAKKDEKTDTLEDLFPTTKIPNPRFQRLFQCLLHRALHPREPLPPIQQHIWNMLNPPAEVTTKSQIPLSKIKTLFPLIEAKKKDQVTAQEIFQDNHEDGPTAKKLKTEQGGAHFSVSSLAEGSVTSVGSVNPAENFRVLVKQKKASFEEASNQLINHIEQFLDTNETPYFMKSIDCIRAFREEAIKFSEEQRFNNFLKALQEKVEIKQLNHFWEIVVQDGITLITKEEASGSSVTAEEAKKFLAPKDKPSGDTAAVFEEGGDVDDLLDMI
UniProt P12956: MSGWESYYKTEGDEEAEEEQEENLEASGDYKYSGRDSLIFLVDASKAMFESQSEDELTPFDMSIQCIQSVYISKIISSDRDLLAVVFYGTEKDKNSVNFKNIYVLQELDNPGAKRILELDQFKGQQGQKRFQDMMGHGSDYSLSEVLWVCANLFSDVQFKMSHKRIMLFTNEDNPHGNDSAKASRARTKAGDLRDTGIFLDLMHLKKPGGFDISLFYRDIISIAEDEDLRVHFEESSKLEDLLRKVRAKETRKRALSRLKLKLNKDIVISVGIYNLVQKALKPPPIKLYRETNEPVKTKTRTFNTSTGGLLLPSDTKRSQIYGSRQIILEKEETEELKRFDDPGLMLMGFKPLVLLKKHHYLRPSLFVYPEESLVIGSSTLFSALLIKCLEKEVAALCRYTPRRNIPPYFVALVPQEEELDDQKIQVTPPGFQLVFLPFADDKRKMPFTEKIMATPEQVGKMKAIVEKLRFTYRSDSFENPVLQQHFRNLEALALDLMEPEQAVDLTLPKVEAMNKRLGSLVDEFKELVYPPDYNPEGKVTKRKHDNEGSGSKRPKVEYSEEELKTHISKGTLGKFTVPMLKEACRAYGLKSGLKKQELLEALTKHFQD

T1: FLAG-tagged IRF1 (FLAG-IRF1 or IRF1-FLAG), bait of the proteomics screen (UniProt P10914)
T1 sequence: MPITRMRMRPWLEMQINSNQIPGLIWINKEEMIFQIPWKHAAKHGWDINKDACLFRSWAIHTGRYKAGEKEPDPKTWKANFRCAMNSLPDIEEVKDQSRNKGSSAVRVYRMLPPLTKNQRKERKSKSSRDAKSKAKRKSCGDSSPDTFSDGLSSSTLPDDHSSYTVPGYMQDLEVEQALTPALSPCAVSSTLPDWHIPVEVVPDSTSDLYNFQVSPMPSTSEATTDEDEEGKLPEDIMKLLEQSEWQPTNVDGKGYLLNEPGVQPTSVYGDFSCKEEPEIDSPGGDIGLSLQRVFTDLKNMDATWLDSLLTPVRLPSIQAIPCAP

B1: TAB1 (protein, UniProt Q15750 1-504)
chain: MAAQRRSLLQSEQQPSWTDDLPLCHLSGVGSASNRSYSADGKGTESHPPEDSWLKFRSENNCFLYGVFNGYDGNRVTNFVAQRLSAELLLGQLNAEHAEADVRRVLLQAFDVVERSFLESIDDALAEKASLQSQLPEGVPQHQLPPQYQKILERLKTLEREISGGAMAVVAVLLNNKLYVANVGTNRALLCKSTVDGLQVTQLNVDHTTENEDELFRLSQLGLDAGKIKQVGIICGQESTRRIGDYKVKYGYTDIDLLSAAKSKPIIAEPEIHGAQPLDGVTGFLVLMSEGLYKALEAAHGPGQANQEIAAMIDTEFAKQTSLDAVAQAVVDRVKRIHSDTFASGGERARFCPRHEDMTLLVRNFGYPLGEMSQPTPSPAPAAGGRVYPVSVPYSSAQSTSKTSVTLSLVMPSQGQMVNGAHSASTLDEATPTLTNQSPTLTLQSTNTHTQSSSSSSDGGLFRSRPAHSLPPGEDGRVEPYVDFAEFYRLWSVDHGEQSVVTAP
B2: TAB3 (protein, UniProt Q8N5C8 1-712)
chain: MAQSSPQLDIQVLHDLRQRFPEIPEGVVSQCMLQNNNNLEACCRALSQESSKYLYMEYHSPDDNRMNRNRLLHINLGIHSPSSYHPGDGAQLNGGRTLVHSSSDGHIDPQHAAGKQLICLVQEPHSAPAVVAATPNYNPFFMNEQNRSAATPPSQPPQQPSSMQTGMNPSAMQGPSPPPPPPSYMHIPRYSTNPITVTVSQNLPSGQTVPRALQILPQIPSNLYGSPGSIYIRQTSQSSSGRQTPQSTPWQSSPQGPVPHYSQRPLPVYPHQQNYQPSQYSPKQQQIPQSAYHSPPPSQCPSPFSSPQHQVQPSQLGHIFMPPSPSTTPPHPYQQGPPSYQKQGSHSVAYLPYTASSLSKGSMKKIEITVEPSQRPGTAINRSPSPISNQPSPRNQHSLYTATTPPSSSPSRGISSQPKPPFSVNPVYITYTQPTGPSCTPSPSPRVIPNPTTVFKITVGRATTENLLNLVDQEERSAAPEPIQPISVIPGSGGEKGSHKYQRSSSSGSDDYAYTQALLLHQRARMERLAKQLKLEKEELERLKSEVNGMEHDLMQRRLRRVSCTTAIPTPEEMTRLRSMNRQLQINVDCTLKEVDLLQSRGNFDPKAMNNFYDNIEPGPVVPPKPSKKDSSDPCTIERKARRISVTSKVQADIHDTQAAAADEHRTGSTQSPRTQPRDEDYEGAPWNCDSCTFLNHPALNRCEQCEMPRYT

Molecular target: T1, FLAG-tagged IRF1 (FLAG-IRF1 or IRF1-FLAG), bait of the proteomics screen
Assay: affinity purification with mass spectrometry

Molecule | binding
CSNK2B, regulatory subunit of casein kinase 2 (endogenous) (from UniProt P67870 1-215) | binds
DDX21 (from UniProt Q9NR30 1-783) | binds
PRKAR1A (from UniProt P10644 1-381) | binds
STK38L (from UniProt Q9Y2H1 1-464) | binds
XRCC5 (from UniProt P13010 1-732) | binds
XRCC6 (from UniProt P12956 1-609) | binds
B1 | binds
B2 | binds

These are yes or no findings as the source states them, for the method shown. Binding seen in cells or lysates may run through a third protein. A yes stands for co-enrichment or nearness to the bait. Other partners may have been found. Sequences can lack the tags named with a protein.
